Test results reported in the supplement of paper PMC12823440, “Inhibitors supercharge kinase turnover through native proteolytic circuits” (Nature, 2025).
Counter-ions that a name gives are not always drawn. The list shows a part of the results. The calls rarely recur for the same compound in another form.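 In K562 cells expressing nanoluciferase-fused kinases, luminescence was recorded at 4 h intervals between 2 and 18 h, normalized as percent of control with DMSO at 100% and a positive control at 0%. A significant (2 sigma) signal drop marks a time point as decreased. The authors' rule for a hit is not shown and takes in more than the number of time points.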

Amino acid sequences for entries named in this document (tags omitted). A change or cut given only in a name is not applied to a line headed by its entry.
UniProt Q15208: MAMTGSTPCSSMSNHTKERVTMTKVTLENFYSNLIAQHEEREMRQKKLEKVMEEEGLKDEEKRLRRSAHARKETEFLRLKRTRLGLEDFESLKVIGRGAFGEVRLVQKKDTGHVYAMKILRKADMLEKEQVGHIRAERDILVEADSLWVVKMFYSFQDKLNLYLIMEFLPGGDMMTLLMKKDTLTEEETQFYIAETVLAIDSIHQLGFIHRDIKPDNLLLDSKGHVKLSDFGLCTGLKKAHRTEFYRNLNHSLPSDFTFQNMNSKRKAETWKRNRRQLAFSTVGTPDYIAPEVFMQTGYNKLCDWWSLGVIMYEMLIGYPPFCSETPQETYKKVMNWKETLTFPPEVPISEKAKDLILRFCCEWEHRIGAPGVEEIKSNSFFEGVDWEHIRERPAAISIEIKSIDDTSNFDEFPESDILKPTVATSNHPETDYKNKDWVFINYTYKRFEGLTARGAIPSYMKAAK
UniProt P42680: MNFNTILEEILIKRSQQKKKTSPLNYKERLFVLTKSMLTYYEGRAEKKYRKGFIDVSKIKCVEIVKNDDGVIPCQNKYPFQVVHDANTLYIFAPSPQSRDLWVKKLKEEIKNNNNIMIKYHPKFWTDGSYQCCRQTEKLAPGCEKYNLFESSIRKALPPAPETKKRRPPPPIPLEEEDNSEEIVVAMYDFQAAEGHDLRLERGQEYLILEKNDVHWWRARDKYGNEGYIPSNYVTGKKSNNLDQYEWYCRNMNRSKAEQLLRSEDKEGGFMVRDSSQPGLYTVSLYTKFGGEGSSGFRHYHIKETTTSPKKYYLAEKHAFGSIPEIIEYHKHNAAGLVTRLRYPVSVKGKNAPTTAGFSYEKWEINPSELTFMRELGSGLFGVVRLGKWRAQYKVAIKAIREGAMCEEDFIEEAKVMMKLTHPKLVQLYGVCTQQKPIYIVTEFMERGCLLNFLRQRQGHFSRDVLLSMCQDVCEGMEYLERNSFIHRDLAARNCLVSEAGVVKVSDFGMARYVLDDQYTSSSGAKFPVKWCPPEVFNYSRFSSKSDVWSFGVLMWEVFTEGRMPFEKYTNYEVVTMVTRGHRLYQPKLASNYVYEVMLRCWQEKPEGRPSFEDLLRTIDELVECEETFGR
UniProt P29597: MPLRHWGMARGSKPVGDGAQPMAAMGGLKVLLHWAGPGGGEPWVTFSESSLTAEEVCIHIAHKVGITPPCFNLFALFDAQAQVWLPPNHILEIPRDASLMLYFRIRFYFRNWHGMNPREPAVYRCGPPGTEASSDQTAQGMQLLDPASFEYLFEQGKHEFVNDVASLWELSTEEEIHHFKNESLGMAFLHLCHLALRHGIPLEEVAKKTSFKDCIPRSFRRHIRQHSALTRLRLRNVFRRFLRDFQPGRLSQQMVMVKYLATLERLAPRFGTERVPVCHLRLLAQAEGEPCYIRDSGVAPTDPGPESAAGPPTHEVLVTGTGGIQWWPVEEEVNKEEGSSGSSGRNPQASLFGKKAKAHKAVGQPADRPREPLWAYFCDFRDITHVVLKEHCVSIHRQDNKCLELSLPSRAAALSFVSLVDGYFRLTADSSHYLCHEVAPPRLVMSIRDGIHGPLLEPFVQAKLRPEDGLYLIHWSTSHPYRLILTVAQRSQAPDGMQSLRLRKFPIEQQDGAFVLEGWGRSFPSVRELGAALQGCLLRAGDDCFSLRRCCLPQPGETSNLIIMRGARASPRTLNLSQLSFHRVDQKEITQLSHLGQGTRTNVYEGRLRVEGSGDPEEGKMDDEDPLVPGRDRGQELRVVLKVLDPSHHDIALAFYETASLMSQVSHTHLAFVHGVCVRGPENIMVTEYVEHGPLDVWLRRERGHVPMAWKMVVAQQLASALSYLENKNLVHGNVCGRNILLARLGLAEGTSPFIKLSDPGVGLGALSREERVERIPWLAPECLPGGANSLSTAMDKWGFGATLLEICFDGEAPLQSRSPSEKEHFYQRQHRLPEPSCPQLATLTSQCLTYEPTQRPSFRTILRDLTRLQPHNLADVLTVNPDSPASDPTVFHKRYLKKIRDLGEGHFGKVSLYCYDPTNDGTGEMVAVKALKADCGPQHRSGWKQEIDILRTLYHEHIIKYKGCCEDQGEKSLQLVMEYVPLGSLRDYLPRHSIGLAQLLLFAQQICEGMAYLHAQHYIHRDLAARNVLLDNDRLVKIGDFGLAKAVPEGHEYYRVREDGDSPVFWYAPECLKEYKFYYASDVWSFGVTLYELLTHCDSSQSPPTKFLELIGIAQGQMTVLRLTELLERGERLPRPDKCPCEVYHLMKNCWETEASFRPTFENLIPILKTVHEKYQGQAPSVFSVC
UniProt Q6PHR2: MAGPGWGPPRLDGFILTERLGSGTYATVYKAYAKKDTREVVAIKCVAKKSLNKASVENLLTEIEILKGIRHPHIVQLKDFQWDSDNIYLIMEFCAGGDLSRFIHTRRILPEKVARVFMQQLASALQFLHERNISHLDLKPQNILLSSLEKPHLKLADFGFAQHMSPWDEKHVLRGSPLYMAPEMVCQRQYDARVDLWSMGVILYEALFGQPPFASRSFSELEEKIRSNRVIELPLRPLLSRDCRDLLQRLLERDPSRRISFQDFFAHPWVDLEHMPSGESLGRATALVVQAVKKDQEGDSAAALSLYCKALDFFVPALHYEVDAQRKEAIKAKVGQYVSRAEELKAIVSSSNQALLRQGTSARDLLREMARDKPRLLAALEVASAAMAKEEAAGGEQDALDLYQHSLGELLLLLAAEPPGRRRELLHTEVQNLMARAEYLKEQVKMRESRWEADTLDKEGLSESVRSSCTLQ
UniProt P07947, whole entry, looked up: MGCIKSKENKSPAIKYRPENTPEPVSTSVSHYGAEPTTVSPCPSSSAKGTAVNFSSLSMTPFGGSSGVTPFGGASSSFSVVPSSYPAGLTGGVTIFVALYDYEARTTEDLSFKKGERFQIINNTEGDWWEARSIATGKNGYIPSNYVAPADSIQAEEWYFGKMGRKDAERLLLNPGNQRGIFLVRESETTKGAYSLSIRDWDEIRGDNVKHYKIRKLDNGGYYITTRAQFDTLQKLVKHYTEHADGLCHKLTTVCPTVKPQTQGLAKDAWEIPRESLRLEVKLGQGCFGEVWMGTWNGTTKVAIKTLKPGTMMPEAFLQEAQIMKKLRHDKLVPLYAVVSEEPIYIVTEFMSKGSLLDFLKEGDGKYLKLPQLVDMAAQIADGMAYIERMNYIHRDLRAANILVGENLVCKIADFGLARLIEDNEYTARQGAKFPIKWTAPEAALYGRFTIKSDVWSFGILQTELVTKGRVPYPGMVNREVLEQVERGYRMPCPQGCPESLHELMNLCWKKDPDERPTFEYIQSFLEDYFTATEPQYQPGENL
UniProt P43403: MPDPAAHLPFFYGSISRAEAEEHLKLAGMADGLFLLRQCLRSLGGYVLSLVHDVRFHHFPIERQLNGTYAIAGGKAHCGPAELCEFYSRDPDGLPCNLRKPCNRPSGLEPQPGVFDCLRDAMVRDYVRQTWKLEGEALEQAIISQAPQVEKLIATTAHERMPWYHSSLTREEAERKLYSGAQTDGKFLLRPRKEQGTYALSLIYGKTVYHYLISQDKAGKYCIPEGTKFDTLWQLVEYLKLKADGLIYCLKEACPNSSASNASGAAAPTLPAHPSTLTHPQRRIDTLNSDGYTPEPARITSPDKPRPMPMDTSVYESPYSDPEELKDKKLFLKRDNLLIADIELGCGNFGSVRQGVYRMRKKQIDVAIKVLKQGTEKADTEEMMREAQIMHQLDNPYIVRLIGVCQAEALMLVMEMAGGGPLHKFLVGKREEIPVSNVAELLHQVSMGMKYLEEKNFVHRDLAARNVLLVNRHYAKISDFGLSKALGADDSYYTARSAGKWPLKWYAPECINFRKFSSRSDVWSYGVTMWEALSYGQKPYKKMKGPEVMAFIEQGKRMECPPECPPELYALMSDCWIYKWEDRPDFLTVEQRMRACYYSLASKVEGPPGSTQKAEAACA
UniProt P00519, whole entry: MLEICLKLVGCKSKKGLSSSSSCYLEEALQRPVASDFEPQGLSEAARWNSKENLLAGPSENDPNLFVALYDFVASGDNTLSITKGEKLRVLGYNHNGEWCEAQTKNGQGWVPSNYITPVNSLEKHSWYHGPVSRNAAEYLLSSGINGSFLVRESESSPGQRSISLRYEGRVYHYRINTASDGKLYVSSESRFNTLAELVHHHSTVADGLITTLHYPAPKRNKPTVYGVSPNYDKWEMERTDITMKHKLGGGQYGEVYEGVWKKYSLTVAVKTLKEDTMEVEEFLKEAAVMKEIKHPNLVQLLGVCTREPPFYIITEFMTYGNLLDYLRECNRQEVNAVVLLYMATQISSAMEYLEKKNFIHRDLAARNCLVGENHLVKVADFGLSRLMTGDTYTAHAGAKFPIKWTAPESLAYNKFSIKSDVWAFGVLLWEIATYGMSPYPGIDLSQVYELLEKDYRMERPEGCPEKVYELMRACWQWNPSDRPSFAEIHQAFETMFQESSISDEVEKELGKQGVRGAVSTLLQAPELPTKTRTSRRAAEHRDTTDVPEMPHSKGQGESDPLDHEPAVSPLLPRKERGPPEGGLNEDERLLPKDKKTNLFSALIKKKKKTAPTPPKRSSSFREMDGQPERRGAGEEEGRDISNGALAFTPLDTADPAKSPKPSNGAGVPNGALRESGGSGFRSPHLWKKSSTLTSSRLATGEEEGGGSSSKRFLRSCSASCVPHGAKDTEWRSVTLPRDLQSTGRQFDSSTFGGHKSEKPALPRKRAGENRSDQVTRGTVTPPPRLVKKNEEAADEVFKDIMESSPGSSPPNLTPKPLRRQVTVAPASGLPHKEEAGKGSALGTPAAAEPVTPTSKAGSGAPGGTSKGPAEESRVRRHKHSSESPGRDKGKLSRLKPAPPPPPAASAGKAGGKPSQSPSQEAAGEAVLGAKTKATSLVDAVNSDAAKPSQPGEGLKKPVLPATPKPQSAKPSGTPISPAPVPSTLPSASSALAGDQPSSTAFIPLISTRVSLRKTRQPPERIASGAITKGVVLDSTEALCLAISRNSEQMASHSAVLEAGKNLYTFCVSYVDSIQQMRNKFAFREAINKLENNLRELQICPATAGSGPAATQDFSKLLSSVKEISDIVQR
UniProt P31749: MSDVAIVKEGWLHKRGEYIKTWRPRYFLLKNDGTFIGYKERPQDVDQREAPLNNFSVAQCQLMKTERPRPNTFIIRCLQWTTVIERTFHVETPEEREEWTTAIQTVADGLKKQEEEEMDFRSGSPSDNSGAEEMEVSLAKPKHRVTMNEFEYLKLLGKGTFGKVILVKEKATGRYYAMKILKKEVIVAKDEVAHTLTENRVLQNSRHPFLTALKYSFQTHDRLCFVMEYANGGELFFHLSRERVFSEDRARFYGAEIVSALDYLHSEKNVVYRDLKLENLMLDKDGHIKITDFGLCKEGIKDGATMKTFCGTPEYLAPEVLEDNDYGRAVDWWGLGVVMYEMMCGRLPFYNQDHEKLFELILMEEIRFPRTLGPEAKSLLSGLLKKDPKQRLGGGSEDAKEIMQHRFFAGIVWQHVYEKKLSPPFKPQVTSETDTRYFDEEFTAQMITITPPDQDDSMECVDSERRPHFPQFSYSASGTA

Columns and labels:
Settings in all cases: K562; 2-18 h
[1] = biological target: STK38 (UniProt Q15208); assay: kinase-Nluc reporter destabilization hit call (1 = scored as downregulated) (binary); higher = compound decreases kinase abundance
[2] = biological target: SYK (UniProt P43405); assay: as above
[3] = biological target: TEC (UniProt P42680); assay: as above
[4] = biological target: TYK2 (UniProt P29597); assay: as above
[5] = biological target: ULK3 (UniProt Q6PHR2); assay: as above
[6] = biological target: YES1 (UniProt P07947); assay: as above
[7] = biological target: ZAK (UniProt Q9NYL2); assay: as above
[8] = biological target: ZAP70 (UniProt P43403); assay: as above
[9] = biological target: ABL1 (UniProt P00519); assay: number of time points (of 5) at which kinase-Nluc abundance scored as decreased, DMSO-normalised (count); higher = more persistent destabilization
[10] = biological target: AKT1 (UniProt P31749); assay: as above

Structure (SMILES) | kinase-Nluc reporter destabilization hit call [1] | kinase-Nluc reporter destabilization hit call [2] | kinase-Nluc reporter destabilization hit call [3] | kinase-Nluc reporter destabilization hit call [4] | kinase-Nluc reporter destabilization hit call [5] | kinase-Nluc reporter destabilization hit call [6] | kinase-Nluc reporter destabilization hit call [7] | kinase-Nluc reporter destabilization hit call [8] | number of time points [9] | number of time points [10]
Cc1c(Br)c(Br)c2c3c1nc(N1CCNCC1)n3CCC2 [SEL120-34A (monohydrochloride)] (2.5 µM) | inactive: 0 | inactive: 0 | inactive: 0 | inactive: 0 | inactive: 0 | inactive: 0 | inactive: 0 | inactive: 0 | 0 | 0
COc1ccc(-c2cnc3c(-c4cccc5ncccc45)cnn3c2)cc1 (10 µM) | inactive: 0 | inactive: 0 | inactive: 0 | inactive: 0 | inactive: 0 | inactive: 0 | inactive: 0 | inactive: 0 | 0 | 0
COC[C@H]1Cn2cc(-c3nc(Nc4ccnn4C)ncc3C)nc2C(=O)N1Cc1ccc(F)c(F)c1 (10 µM) | inactive: 0 | inactive: 0 | inactive: 0 | inactive: 0 | inactive: 0 | inactive: 0 | inactive: 0 | inactive: 0 | 0 | 0
CCn1c2ccccc2c2cc(Nc3ccnc(NCCCN4CCOCC4)n3)ccc21 (2.5 µM) | inactive: 0 | inactive: 0 | inactive: 0 | inactive: 0 | inactive: 0 | inactive: 0 | inactive: 0 | inactive: 0 | 0 | 0
COc1ccc(F)cc1C(=O)NCc1ccc(-c2nn([C@@H](C)C(F)(F)F)c(N)c2C(N)=O)cc1 [Pirtobrutinib] (10 µM) | inactive: 0 | inactive: 0 | inactive: 0 | inactive: 0 | inactive: 0 | inactive: 0 | inactive: 0 | inactive: 0 | 0 | 0
CC(C)(O)c1cc2nc(-c3cnc(N)nc3)nc(N3CCOCC3)c2s1 (2.5 µM) | inactive: 0 | inactive: 0 | inactive: 0 | inactive: 0 | inactive: 0 | inactive: 0 | inactive: 0 | inactive: 0 | 5 | 0
Cc1cc([N+](=O)[O-])c(NS(=O)(=O)c2cccc(C(=O)O)c2)cc1-c1cccnc1 [Alofanib] (10 µM) | inactive: 0 | inactive: 0 | inactive: 0 | inactive: 0 | inactive: 0 | inactive: 0 | inactive: 0 | inactive: 0 | 0 | 0
O=C(Nc1nccs1)C(c1cc(F)ccc1O)N1Cc2ccc(-c3ccc(N4CCNCC4)cc3)cc2C1=O (racemic) (10 µM) | inactive: 0 | inactive: 0 | inactive: 0 | inactive: 0 | inactive: 0 | inactive: 0 | inactive: 0 | inactive: 0 | 4 | 0
CCCC[C@H](CO)Nc1nc(NC)ncc1OC [Interferon receptor inducer-1] (10 µM) | inactive: 0 | inactive: 0 | inactive: 0 | inactive: 0 | inactive: 0 | inactive: 0 | inactive: 0 | inactive: 0 | 0 | 0
CCCCCC1CC1CC1CC1CCCCCCCC(=O)O (stereo not given) (10 µM) | inactive: 0 | inactive: 0 | inactive: 0 | inactive: 0 | inactive: 0 | inactive: 0 | inactive: 0 | inactive: 0 | 0 | 0
CNS(=O)(=O)C[C@H]1CC[C@H](N(C)c2[nH]cnc3nccc2-3)CC1 [Oclacitinib (maleate)] (10 µM) | inactive: 0 | inactive: 0 | inactive: 0 | inactive: 0 | inactive: 0 | inactive: 0 | inactive: 0 | inactive: 0 | 0 | 0
CN1CCC(c2ccccc2CC(C)(C)Nc2nc(N3CCOCC3)nc(-n3c(S(C)(=O)=O)nc4ccccc43)n2)CC1 (10 µM) | inactive: 0 | inactive: 0 | inactive: 0 | inactive: 0 | inactive: 0 | inactive: 0 | inactive: 0 | inactive: 0 | 0 | 0
CC(C)=CCC/C(C)=C/CC/C(C)=C/CSc1ccccc1C(=O)O [Salirasib] (10 µM) | inactive: 0 | inactive: 0 | inactive: 0 | inactive: 0 | inactive: 0 | inactive: 0 | inactive: 0 | inactive: 0 | 0 | 0
O=c1cc(-c2ccc(O)cc2)oc2cc(O)c([C@@H]3O[C@H](CO)[C@@H](O)[C@H](O)[C@H]3O)c(O)c12 [Isovitexin] (10 µM) | inactive: 0 | inactive: 0 | inactive: 0 | inactive: 0 | inactive: 0 | inactive: 0 | inactive: 0 | inactive: 0 | 0 | 0

Some values from the entries so far:
kinase-Nluc reporter destabilization hit call [7] with CCn1c2ccccc2c2cc(Nc3ccnc(NCCCN4CCOCC4)n3)ccc21 (2.5 µM) is entered as inactive: 0
number of time points [10] with O=C(Nc1nccs1)C(c1cc(F)ccc1O)N1Cc2ccc(-c3ccc(N4CCNCC4)cc3)cc2C1=O (racemic) (10 µM) is entered as 0
